How the values were obtained:
[1] = NMRD relaxivity profiles (fast-field-cycling relaxometer); type: physicochemical; details: 10 MHz, 25° C.
[2] = T1 relaxation / r1 relaxivity at 3T (Philips Achieva scanner); type: physicochemical

Q: Which “r1, T1 relaxivity” value [1] does the source give for O.O=C([O-])CN1CCN(CC(=O)[O-])CCN(Cc2cc(C#Cc3ccc(NC(=O)c4ccncc4)cc3)ccn2)CCN(CC(=O)[O-])CC1.[Gd+3] [GdL] here?
A: Its value is 23.1 mM⁻¹ s⁻¹.

Q: For O.O=[N+]([O-])[O-].[Gd+3].[NH3+][Pt-2]([NH3+])([Cl])[n+]1ccc(C(=O)Nc2ccc(C#Cc3ccnc(CN4CCN(CC(=O)[O-])CCN(CC(=O)[O-])CCN(CC(=O)[O-])CC4)c3)cc2)cc1 [PtGdL], which “R1 = 1/T1” value ([2]; 1.07E−04 mol/L) is on record?
A: The value was 3.1 s⁻¹.

Q: And the T1 average ([2]; 1.07E−04 mol/L)?
A: Its T1 average is 324.5 ms.

Q: What about the “T1 slice 1” value ([2]; 1.07E−04 mol/L) of the same molecule?
A: The value was 373 ms.

Q: What about the “T1 slice 2” value ([2]; 1.07E−04 mol/L) of the same molecule?
A: Its value is 276 ms.

Q: What about the “R1 = 1/T1” value ([2]; 1.07E−05 mol/L) of the same molecule?
A: The value was 0.5 s⁻¹.

Q: And the T1 average ([2]; 1.07E−05 mol/L)?
A: Its T1 average is 1829.5 ms.

Q: What about the “T1 slice 1” value ([2]; 1.07E−05 mol/L) of the same molecule?
A: The value was 1960 ms.

Q: And the “T1 slice 2” value ([2]; 1.07E−05 mol/L)?
A: The value was 1699 ms.

Q: And the “R1 = 1/T1” value ([2]; 2.68E−05 mol/L)?
A: Its value is 0.9 s⁻¹.

Q: What about the T1 average ([2]; 2.68E−05 mol/L) of the same molecule?
A: The T1 average was 1170.5 ms.

Q: What about the “T1 slice 1” value ([2]; 2.68E−05 mol/L) of the same molecule?
A: Its value is 1231 ms.

Q: What about the “T1 slice 2” value ([2]; 2.68E−05 mol/L) of the same molecule?
A: Its value is 1110 ms.

Q: And the “R1 = 1/T1” value ([2]; 5.36E−05 mol/L)?
A: The value was 1.2 s⁻¹.

Q: And the T1 average ([2]; 5.36E−05 mol/L)?
A: Its T1 average is 864.5 ms.

Q: And the “T1 slice 1” value ([2]; 5.36E−05 mol/L)?
A: Its value is 917 ms.

Q: What about the “T1 slice 2” value ([2]; 5.36E−05 mol/L) of the same molecule?
A: The value was 812 ms.

Q: And the “R1 = 1/T1” value ([2]; 5.36E−06 mol/L)?
A: Its value is 0.5 s⁻¹.

Q: And the T1 average ([2]; 5.36E−06 mol/L)?
A: Its T1 average is 2012.5 ms.

Q: What about the “T1 slice 1” value ([2]; 5.36E−06 mol/L) of the same molecule?
A: The value was 2092 ms.

Q: And the “T1 slice 2” value ([2]; 5.36E−06 mol/L)?
A: The value was 1933 ms.

Q: And the r1 relaxivity ([2]; aqueous solution, linear fit of R1 vs concentration)?
A: The r1 relaxivity was 24.4 mM⁻¹ s⁻¹.

Q: And the “r1, T1 relaxivity” value [1]?
A: The value was 29.4 mM⁻¹ s⁻¹.
